PubChem BioAssay AID1224828 – NIAID | 2016

- Assay: 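Regulators linking TLR4 signalling to p65 nuclear translocation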 (primary screen)
- Cell system: mouse RAW264.7 G9 macrophage reporter cells (GFP-p65, Tnf promoter-mCherry)
- Knock-down reagent: siRNA pool against mouse genes, 100 nM
- Time to read-out: 2 days siRNA transfection, then 40 min LPS before fixation
- Challenge: LPS (Salmonella minnesota R595) at 10 ng/ml
- Measurement: 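Imaged p65 nuclear translocation ratio, normalised to the plate median, converted to robust z-scores and averaged across two replicates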
- Reading the numbers: p65 translocation robust z-score: higher = more nuclear NF-kappaB p65 after LPS than the plate median; nuclear/cytoplasmic p65 ratio: higher = more nuclear NF-kappaB p65
- Active means: 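Called active when z exceeds 3.3 or falls under -1.56 (median of Tlr4 controls), giving activity score of at least 50; no calls for control wells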
- Calls: active = hit (p65 shift raised or lowered); inactive = no clear change
The whole screen tested about 17,000 reagents; this is an unselected part. Over the whole deposit, 762 (4.5%) got an active call. 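Active calls include both raised and lowered p65 entry, mostly lowered; wells with fewer than 50 cells lack a z-score.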 The raw values are shown without normalisation.

| gene symbol | p65 translocation robust z-score | nuclear/cytoplasmic p65 ratio, rep 1 | nuclear/cytoplasmic p65 ratio, rep 2 | low cell count flag | Call |
| --- | --- | --- | --- | --- | --- |
| Pex19 (peroxisomal biogenesis factor 19) | 0.04 | 1.34 | 1.52 | enough cells to score | inactive |
| Klhdc4 (kelch domain containing 4) | -0.25 | 1.6 | 1.73 | enough cells to score | inactive |
| Gpank1 (G patch domain and ankyrin repeats 1) | 0.6 | 1.63 | 1.99 | enough cells to score | inactive |
| Meis1 (Meis homeobox 1) | 0.17 | 1.72 | 1.59 | enough cells to score | inactive |
| Cyp27a1 (cytochrome P450, family 27, subfamily a, polypeptide 1) | 0.12 | 1.57 | 1.33 | enough cells to score | inactive |
| Oma1 (OMA1 zinc metallopeptidase) | – | 1.36 | 1.15 | fewer than 50 cells per well; well left out of scoring | inactive |
| Rasal3 (RAS protein activator like 3) | 0.41 | 1.36 | 1.67 | enough cells to score | inactive |
| Spink10 (serine peptidase inhibitor, Kazal type 10) | – | 1.37 | 1.61 | fewer than 50 cells per well; well left out of scoring | inactive |
| Ssxb1 (SSX member B1) | – | 1.28 | 1.15 | fewer than 50 cells per well; well left out of scoring | inactive |

Just “nuclear/cytoplasmic p65 ratio, rep 2” (2 entries from above):
Gpank1 (G patch domain and ankyrin repeats 1): 1.99
Meis1 (Meis homeobox 1): 1.59

Continued.
| gene symbol | p65 translocation robust z-score | nuclear/cytoplasmic p65 ratio, rep 1 | nuclear/cytoplasmic p65 ratio, rep 2 | low cell count flag | Call |
| --- | --- | --- | --- | --- | --- |
| Nfe2 (nuclear factor, erythroid derived 2) | -0.41 | 1.31 | 1.36 | enough cells to score | inactive |
| Cdip1 (cell death inducing Trp53 target 1) | – | 1.35 | 1.56 | fewer than 50 cells per well; well left out of scoring | inactive |
| Ccdc121 (coiled-coil domain containing 121) | 1.28 | 1.37 | 1.46 | enough cells to score | inactive |
| Slc25a16 | -0.09 | 1.32 | 1.31 | enough cells to score | inactive |
| Ccdc63 (coiled-coil domain containing 63) | – | 1.5 | 1.36 | fewer than 50 cells per well; well left out of scoring | inactive |
| Or5d40 (olfactory receptor family 5 subfamily D member 40) | -0.3 | 1.66 | 1.49 | enough cells to score | inactive |
| Siglecf (sialic acid binding Ig-like lectin F) | -0.25 | 1.36 | 1.24 | enough cells to score | inactive |
| Gar1 (GAR1 ribonucleoprotein) | -0.09 | 1.76 | 1.46 | enough cells to score | inactive |
| Ptpre (protein tyrosine phosphatase receptor type E) | 5.75 | 1.52 | 3.09 | enough cells to score | active |
| Kcnh5 | -0.6 | 1.56 | 1.48 | enough cells to score | inactive |
| Kcns3 | 0.19 | 1.5 | 1.26 | enough cells to score | inactive |
| Smcp (sperm mitochondria-associated cysteine-rich protein) | 0.93 | 1.86 | 1.69 | enough cells to score | inactive |
| Pip4p2 (phosphatidylinositol-4,5-bisphosphate 4-phosphatase 2) | -0.54 | 1.31 | 1.41 | enough cells to score | inactive |
| Cyp4b1 (cytochrome P450, family 4, subfamily b, polypeptide 1) | 0.79 | 1.67 | 1.93 | enough cells to score | inactive |
| Pla2g4b (phospholipase A2, group IVB (cytosolic)) | 0.01 | 1.52 | 1.39 | enough cells to score | inactive |
